Reference: PubChem BioAssay (EPA / NIEHS)
For some assays here: Most of the hits are listed elsewhere, so they are rarer here than in the full data. Inconclusive results are not listed. The list shows a part of the results, in another mix than the full data. Active and inactive are the calls of the source. How the source made its calls, unless noted: active means hit-call score of the fitted dose curve at least 0.9, where 1 is the maximum; inactive means score below 0.9.

Amino acid sequences for entries named in this document (tags omitted). A change or cut given only in a name is not applied to a line headed by its entry.
UniProt P19838: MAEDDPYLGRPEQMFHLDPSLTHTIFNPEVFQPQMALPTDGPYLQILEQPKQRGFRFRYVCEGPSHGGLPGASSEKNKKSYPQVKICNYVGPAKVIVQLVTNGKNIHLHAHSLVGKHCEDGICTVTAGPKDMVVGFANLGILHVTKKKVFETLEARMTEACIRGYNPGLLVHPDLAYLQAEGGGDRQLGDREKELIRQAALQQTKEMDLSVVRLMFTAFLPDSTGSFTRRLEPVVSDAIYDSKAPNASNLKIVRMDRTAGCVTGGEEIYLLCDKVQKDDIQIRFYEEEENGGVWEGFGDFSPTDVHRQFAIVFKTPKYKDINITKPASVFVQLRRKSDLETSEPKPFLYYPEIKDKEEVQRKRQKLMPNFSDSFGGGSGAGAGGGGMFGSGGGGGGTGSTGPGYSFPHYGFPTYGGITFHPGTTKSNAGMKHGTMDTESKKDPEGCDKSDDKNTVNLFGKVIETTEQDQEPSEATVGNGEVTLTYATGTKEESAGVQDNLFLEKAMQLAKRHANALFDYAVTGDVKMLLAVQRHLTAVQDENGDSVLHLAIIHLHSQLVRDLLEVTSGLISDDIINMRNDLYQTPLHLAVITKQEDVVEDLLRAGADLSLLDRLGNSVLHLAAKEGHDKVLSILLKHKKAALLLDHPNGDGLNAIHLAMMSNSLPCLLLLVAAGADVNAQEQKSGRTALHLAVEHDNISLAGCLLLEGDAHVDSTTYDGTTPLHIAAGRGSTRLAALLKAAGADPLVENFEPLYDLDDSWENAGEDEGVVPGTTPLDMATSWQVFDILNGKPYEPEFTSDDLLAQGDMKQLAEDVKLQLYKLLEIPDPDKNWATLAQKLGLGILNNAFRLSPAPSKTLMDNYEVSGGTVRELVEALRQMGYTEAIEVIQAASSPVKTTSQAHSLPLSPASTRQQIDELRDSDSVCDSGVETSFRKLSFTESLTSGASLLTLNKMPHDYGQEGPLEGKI
UniProt P10275: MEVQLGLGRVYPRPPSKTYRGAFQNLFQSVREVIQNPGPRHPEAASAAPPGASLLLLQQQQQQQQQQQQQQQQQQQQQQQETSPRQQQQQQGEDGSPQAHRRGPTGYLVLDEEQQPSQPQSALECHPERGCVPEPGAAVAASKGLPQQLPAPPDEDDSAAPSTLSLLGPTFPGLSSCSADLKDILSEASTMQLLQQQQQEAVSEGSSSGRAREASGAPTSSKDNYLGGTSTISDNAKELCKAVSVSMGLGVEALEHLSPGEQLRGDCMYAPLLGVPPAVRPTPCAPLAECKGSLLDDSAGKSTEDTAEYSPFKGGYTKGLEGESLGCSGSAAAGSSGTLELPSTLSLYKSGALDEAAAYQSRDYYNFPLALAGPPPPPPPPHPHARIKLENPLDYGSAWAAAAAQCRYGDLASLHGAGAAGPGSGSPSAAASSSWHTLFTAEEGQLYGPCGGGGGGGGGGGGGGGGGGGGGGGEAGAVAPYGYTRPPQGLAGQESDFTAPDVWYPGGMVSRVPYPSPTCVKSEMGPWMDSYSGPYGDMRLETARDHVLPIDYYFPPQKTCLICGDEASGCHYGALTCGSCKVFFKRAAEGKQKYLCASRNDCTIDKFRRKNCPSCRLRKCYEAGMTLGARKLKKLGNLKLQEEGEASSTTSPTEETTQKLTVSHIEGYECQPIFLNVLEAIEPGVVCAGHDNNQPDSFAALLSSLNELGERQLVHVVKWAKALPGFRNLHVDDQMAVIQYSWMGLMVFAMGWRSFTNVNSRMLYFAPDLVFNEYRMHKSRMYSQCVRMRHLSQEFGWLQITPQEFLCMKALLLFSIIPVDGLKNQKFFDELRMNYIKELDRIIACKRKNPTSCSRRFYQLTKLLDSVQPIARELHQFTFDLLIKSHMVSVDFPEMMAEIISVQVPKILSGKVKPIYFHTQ
UniProt P22680: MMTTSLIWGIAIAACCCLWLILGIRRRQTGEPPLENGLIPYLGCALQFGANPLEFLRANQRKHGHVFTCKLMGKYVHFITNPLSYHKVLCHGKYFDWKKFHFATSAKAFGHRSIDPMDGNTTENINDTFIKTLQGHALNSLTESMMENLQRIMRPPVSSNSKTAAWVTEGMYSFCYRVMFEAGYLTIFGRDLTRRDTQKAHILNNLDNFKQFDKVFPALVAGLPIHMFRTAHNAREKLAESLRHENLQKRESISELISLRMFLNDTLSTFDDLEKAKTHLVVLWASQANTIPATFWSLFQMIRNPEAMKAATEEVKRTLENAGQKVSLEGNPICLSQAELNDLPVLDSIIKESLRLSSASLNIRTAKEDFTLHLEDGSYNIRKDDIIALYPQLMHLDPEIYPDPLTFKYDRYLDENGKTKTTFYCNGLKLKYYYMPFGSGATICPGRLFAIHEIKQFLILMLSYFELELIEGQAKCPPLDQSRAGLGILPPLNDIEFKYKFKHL
UniProt P08684, whole entry, looked up: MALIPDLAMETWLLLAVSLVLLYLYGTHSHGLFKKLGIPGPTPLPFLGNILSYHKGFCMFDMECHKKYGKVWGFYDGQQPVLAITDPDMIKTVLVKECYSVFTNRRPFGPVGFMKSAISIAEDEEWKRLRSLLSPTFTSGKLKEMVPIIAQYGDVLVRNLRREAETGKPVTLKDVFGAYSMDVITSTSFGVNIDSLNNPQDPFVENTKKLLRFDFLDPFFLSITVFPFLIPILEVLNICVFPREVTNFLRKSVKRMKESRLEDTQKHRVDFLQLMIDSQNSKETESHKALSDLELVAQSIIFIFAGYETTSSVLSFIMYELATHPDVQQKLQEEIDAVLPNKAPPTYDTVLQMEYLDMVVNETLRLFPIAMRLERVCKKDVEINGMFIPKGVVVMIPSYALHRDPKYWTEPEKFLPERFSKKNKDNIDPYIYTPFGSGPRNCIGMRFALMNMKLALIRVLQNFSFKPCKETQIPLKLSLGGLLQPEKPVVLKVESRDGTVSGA
UniProt P40763, whole entry, looked up: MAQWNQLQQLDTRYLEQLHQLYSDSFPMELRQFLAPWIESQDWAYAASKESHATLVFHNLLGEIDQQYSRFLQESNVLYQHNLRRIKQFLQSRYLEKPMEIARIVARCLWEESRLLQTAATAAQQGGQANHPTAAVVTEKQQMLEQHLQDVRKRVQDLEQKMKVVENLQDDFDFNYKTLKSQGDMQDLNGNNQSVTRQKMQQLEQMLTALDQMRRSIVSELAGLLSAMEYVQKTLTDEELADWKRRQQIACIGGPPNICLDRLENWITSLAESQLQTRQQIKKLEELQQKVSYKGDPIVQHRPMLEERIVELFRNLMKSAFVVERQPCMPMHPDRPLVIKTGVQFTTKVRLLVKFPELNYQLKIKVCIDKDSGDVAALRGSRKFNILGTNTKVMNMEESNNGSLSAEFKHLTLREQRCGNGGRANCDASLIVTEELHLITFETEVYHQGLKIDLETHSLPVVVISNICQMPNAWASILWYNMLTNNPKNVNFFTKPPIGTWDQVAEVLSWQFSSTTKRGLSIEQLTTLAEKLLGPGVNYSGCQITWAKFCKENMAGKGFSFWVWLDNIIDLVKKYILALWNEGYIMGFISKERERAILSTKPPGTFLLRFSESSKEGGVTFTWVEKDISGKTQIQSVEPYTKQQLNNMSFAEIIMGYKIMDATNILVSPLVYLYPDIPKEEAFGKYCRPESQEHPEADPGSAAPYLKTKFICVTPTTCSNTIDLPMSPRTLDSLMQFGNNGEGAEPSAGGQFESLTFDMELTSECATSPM

What was measured:
[1] = read-out: Cytochrome P450 (CYP24A1), CYP24A1 (gene 1591); experiment: LTEA_HepaRG_CYP24A1: Life Technologies and Expression Analysis (LTEA) Assay for Cytochrome P450 (CYP24A1) using HepaRG (AID 2283478); conditions: actives raise or lower the signal; mRNA level, 48 h
Method in brief: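 qRT-PCR read-out: CYP24A1 transcript levels normalized to three housekeeping genes, bidirectional curve fits against 0.5% DMSO baseline. Human HepaRG cells treated 48 h with chemicals at eight concentrations from 100 uM in half-log steps.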

[2] = read-out: cysteine-aspartic acid protease (CASP8), CASP8 (gene 841); experiment: LTEA_HepaRG_CASP8: Life Technologies and Expression Analysis (LTEA) Assay for cysteine-aspartic acid protease (CASP8) using HepaRG (AID 2283480); conditions: actives raise or lower the signal; mRNA level, 48 h
Method in brief: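 CASP8 transcript measured by TaqMan qRT-PCR with ACTB/GAPDH/POLR2A normalization, after 48 h chemical exposure of HepaRG cells in serum-free induction medium. Eight concentrations, top 100 uM, half-log steps, 0.5% DMSO vehicle; fits in both directions versus DMSO.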

[3] = read-out: CYP2E1 (gene 1571); experiment: LTEA_HepaRG_CYP2E1: Life Technologies and Expression Analysis (LTEA) Assay for CYP2E1 using HepaRG (AID 2283485); conditions: actives raise or lower the signal; mRNA level, 48 h
Method in brief: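 CYP2E1 transcript measured by Fluidigm qRT-PCR against three housekeeping genes in human HepaRG cells treated 48 h (top 100 uM, half-log steps, 0.5% DMSO vehicle). Gain or loss fitted relative to DMSO baseline.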

[4] = read-out: Nuclear factor NF-kappa-B p105 subunit (Homo sapiens) (UniProt P19838); experiment: LTEA_HepaRG_NFKB1: Life Technologies and Expression Analysis (LTEA) Assay for Nuclear Factor Kappa B Subunit 1 (NFKB1) using HepaRG (AID 2283521); conditions: actives raise or lower the signal; mRNA level, 48 h
Method in brief: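 Differentiated human HepaRG cells were exposed for 48 h in serum-free induction medium to eight concentrations (top 100 uM, half-log steps, 0.5% DMSO), in duplicate. NFKB1 mRNA was measured by TaqMan qRT-PCR, normalized to ACTB/GAPDH/POLR2A, and fitted bidirectionally against DMSO.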

[5] = STM_H9_OrnithineISnorm_perc: Stemina devTOX quickPredict H9 human embryonic stem cell (hESC)-based Assay for Ornithine (ORN) Metabolite Biomarker, Normalized (AID 2283712);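 further: ornithine released into spent medium during last day measured by mass spectrometry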
Method in brief: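 Ornithine in spent medium from the last 24 h of a 72 h exposure, deproteinised and quantified by UPLC-HRMS against an isotope-labelled internal standard, expressed relative to 0.1% DMSO. Pluripotent H9 cells; compound refreshed every 24 h.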

[6] = CCTE_Shafer_MEA_dev_per_burst_interspike_interval: CCTE's Neural Network Formation Assay for Burst Interspike Interval, Shafer Lab (AID 2284044)
Method in brief: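 Readout is the average time between spikes inside single-electrode bursts, taken as a well mean across bursting electrodes. Cortical neurons from rat developed networks on MEA plates under continuous 12-day exposure; recordings on days 5, 7, 9 and 12 were integrated by trapezoidal AUC.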

[7] = read-out: ABC Transporter (ABCB11), ABCB11 (gene 8647); experiment: LTEA_HepaRG_ABCB11: Life Technologies and Expression Analysis (LTEA) Assay for ABC Transporter (ABCB11) using HepaRG (AID 2283463); conditions: actives raise or lower the signal; mRNA level, 48 h
Method in brief: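 ABCB11 transcript levels quantified by TaqMan qRT-PCR against three housekeeping genes after 48 h chemical exposure of HepaRG cultures. Concentrations up to 100 uM in half-log steps, 0.5% DMSO vehicle; both induction and suppression scored.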

[8] = read-out: Cytochrome P450 (CYP1A2), CYP1A2 (gene 1544); experiment: LTEA_HepaRG_CYP1A2: Life Technologies and Expression Analysis (LTEA) Assay for Cytochrome P450 (CYP1A2) using HepaRG (AID 2283479); conditions: actives raise or lower the signal; mRNA level, 48 h
Method in brief: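 HepaRG, 48 h exposure, top 100 uM, half-log 8-pt, 0.5% DMSO vehicle, duplicates. Readout: TaqMan qRT-PCR of CYP1A2 mRNA, housekeeping-normalized (ACTB/GAPDH/POLR2A). Gain/loss fit relative to DMSO baseline.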

[9] = molecular target: AR (gene 367) (UniProt P10275); experiment: ACEA_AR_antagonist_80hr: ACEA Biosciences xCELLigence Real-Time Cell Analysis on Androgen Receptor Antagonism for Proliferation (AID 2283787; active means hit-call score of the fitted dose curve at least 0.9, where 1 is the maximum;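 further: 22Rv1 human prostate cancer cells with growth followed by electrical impedance; hits lower the impedance growth signal relative to DMSO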)
Method in brief: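 Impedance-based real-time growth of 22Rv1 prostate cells, read 80 h after dosing. Eight concentrations, 1:4 series, top 100 uM final (0.5% DMSO), n = 2; signal decrease scored against DMSO.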

[10] = read-out: ABC Transporter (ABCC3), ABCC3 (gene 8714); experiment: LTEA_HepaRG_ABCC3: Life Technologies and Expression Analysis (LTEA) Assay for ABC Transporter (ABCC3) using HepaRG (AID 2283462); conditions: actives raise or lower the signal; mRNA level, 48 h
Method in brief: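 qRT-PCR read-out of ABCC3 transcript, normalized to three housekeeping genes (ACTB, GAPDH, POLR2A), after 48 h chemical exposure of human HepaRG cells. Eight half-log concentrations, highest 100 uM, in 0.5% DMSO; gain or loss fitted relative to DMSO baseline.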

[11] = read-out: catalase (CAT), CAT (gene 847); experiment: LTEA_HepaRG_CAT: Life Technologies and Expression Analysis (LTEA) Assay for catalase (CAT) using HepaRG (AID 2283452); conditions: actives raise or lower the signal; mRNA level, 48 h
Method in brief: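 Expression of CAT was quantified by TaqMan qRT-PCR with ACTB/GAPDH/POLR2A normalization after 48 h chemical exposure of HepaRG. Eight-point half-log series, top 100 uM, in 0.5% DMSO; gain or loss fitted against vehicle.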

[12] = read-out: Thyroid Hormone Responsive (THRSP), THRSP (gene 7069); experiment: LTEA_HepaRG_THRSP: Life Technologies and Expression Analysis (LTEA) Assay for Thyroid Hormone Responsive (THRSP) using HepaRG (AID 2283536); conditions: actives raise or lower the signal; mRNA level, 48 h
Method in brief: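 THRSP transcript quantified by Fluidigm qRT-PCR against three housekeeping genes after 48 h chemical exposure of HepaRG cells in serum-free induction medium; eight-point half-log series, top 100 uM, 0.5% DMSO vehicle, duplicate wells.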

[13] = read-out: UDP glucuronosyltransferase (UGT1A6), UGT1A6 (gene 54578); experiment: LTEA_HepaRG_UGT1A6: Life Technologies and Expression Analysis (LTEA) Assay for UDP glucuronosyltransferase (UGT1A6) using HepaRG (AID 2283539); conditions: actives raise or lower the signal; mRNA level, 48 h
Method in brief: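 qRT-PCR readout of UGT1A6 mRNA (normalized to ACTB/GAPDH/POLR2A) in differentiated HepaRG cells after 48 h chemical exposure; 8 concentrations, top 100 uM, half-log steps, 0.5% DMSO. Bidirectional curve fit relative to DMSO baseline.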

[14] = ACEA_ER_AUC_viability: ACEA Biosciences xCELLigence Real-Time Cell Analysis on Estrogen Receptor Agonism for Viability (AID 2283782; active means hit-call score of the fitted dose curve at least 0.9, where 1 is the maximum;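 further: hit means loss of impedance signal meaning reduced cell growth or viability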)
Method in brief: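 Viability endpoint: reduced impedance area under the curve relative to DMSO, recorded by real-time electrode sensing over ~80 h of continuous exposure. Duplicate plates of T47D in hormone-depleted medium; eight concentrations, 1:4 dilutions, 100 uM maximum.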

[15] = read-out: Insulin Like Growth Factor 1 (IGF1), IGF1 (gene 3479); experiment: LTEA_HepaRG_IGF1: Life Technologies and Expression Analysis (LTEA) Assay for Insulin Like Growth Factor 1 (IGF1) using HepaRG (AID 2283506); conditions: actives raise or lower the signal; mRNA level, 48 h
Method in brief: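 Expression measured by TaqMan qRT-PCR on a Fluidigm array, with three housekeeping genes for normalisation, after 48 h treatment of HepaRG cells. Top concentration 100 uM with half-log steps, 0.5% DMSO vehicle, bidirectional fit.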

[16] = read-out: Early growth response protein 1 (EGR1) transcription factor, EGR1 (gene 1958); experiment: LTEA_HepaRG_EGR1: Life Technologies and Expression Analysis (LTEA) Assay for Early growth response protein 1 (EGR1) transcription factor using HepaRG (AID 2283490); conditions: actives raise or lower the signal; mRNA level, 48 h
Method in brief: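 EGR1 transcript levels quantified by qRT-PCR (Fluidigm arrays) against three housekeeping genes after 48 h chemical exposure of HepaRG cells. Eight-point half-log series topping at 100 uM, 0.5% DMSO vehicle, analyzed for gain or loss.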

[17] = read-out: Cytochrome P450 7A1 (Homo sapiens) (UniProt P22680); experiment: LTEA_HepaRG_CYP7A1: Life Technologies and Expression Analysis (LTEA) Assay for Cytochrome P450 7A1 (CYP7A1) using HepaRG (AID 2283496); conditions: actives raise or lower the signal; mRNA level, 48 h
Method in brief: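 HepaRG, 48 h exposure, 8-pt half-log series from 100 uM, 0.5% DMSO vehicle, duplicates. Readout: TaqMan qRT-PCR mRNA vs three housekeeping genes; bidirectional curve fit against DMSO baseline.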

[18] = ACEA_AR_antagonist_AUC_viability: ACEA Biosciences xCELLigence Real-Time Cell Analysis on Androgen Receptor Antagonism for Viability (AID 2283776; active means hit-call score of the fitted dose curve at least 0.9, where 1 is the maximum;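 further: 22Rv1 human prostate cancer cells growing on impedance electrode plates; area under impedance growth curve at 80 h after dosing as viability; hits lower the growth signal relative to DMSO meaning cytotoxicity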)
Method in brief: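 Real-time electrical impedance tracks 22Rv1 proliferation after continuous compound exposure (top 100 uM final, 1:4 steps, 8 concentrations). The 80 h area-under-curve serves as the cytotoxicity readout relative to DMSO.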

[19] = CEETOX_H295R_DOC: CeeTox H295R High-throughput Steroidogenesis Assay for DOC (AID 2283439); conditions: actives raise or lower the signal
Method in brief: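 11-Deoxycorticosterone quantified in medium by MTBE extraction and HPLC-MS/MS after 48 h chemical exposure (0.1% DMSO) of forskolin-primed (10 uM, 48 h) H295R cells. Same-well MTT viability; data fitted bidirectionally against DMSO.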

[20] = CEETOX_H295R_PROG: CeeTox H295R High-throughput Steroidogenesis Assay for Progesterone (PROG) (AID 2283442); conditions: actives raise or lower the signal;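 further: human H295R adrenal cells primed with 10 µM forskolin before dosing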
Method in brief: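 Progesterone read-out: HPLC-MS/MS on MTBE extracts of conditioned medium after 48 h chemical exposure of forskolin-primed (10 uM, 48 h) H295R cells. Gain or loss of signal was fitted relative to DMSO baseline.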

[21] = read-out: Cytochrome P450 3A4 (Homo sapiens) (UniProt P08684); experiment: LTEA_HepaRG_CYP3A4: Life Technologies and Expression Analysis (LTEA) Assay for CYP3A4 using HepaRG (AID 2283487); conditions: actives raise or lower the signal; mRNA level, 48 h
Method in brief: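 CYP3A4 transcript measured by TaqMan qRT-PCR and normalized to three housekeeping genes after 48 h chemical exposure of human HepaRG cells. Top concentration 100 uM, half-log steps, 0.5% DMSO vehicle; gain or loss fitted against DMSO baseline.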

[22] = read-out: Signal transducer and activator of transcription 3 (Homo sapiens) (UniProt P40763); experiment: LTEA_HepaRG_STAT3: Life Technologies and Expression Analysis (LTEA) Assay for Signal transducer and activator of transcription (STAT3) using HepaRG (AID 2283529); conditions: actives raise or lower the signal; mRNA level, 48 h
Method in brief: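 STAT3 transcript quantified by qRT-PCR against three housekeeping genes (ACTB, GAPDH, POLR2A), fitted both directions relative to DMSO. HepaRG cultures exposed 48 h to eight half-log concentrations, top 100 uM, 0.5% DMSO, serum-free induction medium.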

[23] = read-out: Tumor necrosis factor receptor 1 (TNFRSF1A), TNFRSF1A (gene 7132); experiment: LTEA_HepaRG_TNFRSF1A: Life Technologies and Expression Analysis (LTEA) Assay for Tumor necrosis factor receptor 1 (TNFRSF1A) using HepaRG (AID 2283535); conditions: actives raise or lower the signal; mRNA level, 48 h
Method in brief: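 HepaRG, 48 h plating then 48 h chemical exposure, serum-free induction media; 8-pt CRC from 100 uM, half-log, 0.5% DMSO vehicle, duplicates. Readout: TaqMan qRT-PCR (Fluidigm), housekeeping-gene normalized; bidirectional fit vs DMSO.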

[24] = TAMU_PeakParms_SingleDonor1434_Chronotropy: Texas A&M University (TAMU) 1.5-hr Human Induced Pluripotent Stem Cell (iPSC)-derived Cardiomyocytes Calcium (Ca+2) Flux Assay for Cardiotoxicity: Chronotropy (changes in peak frequency) (AID 2284217); conditions: actives raise or lower the signal
Method in brief: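 iPSC-CMs, donor 1434; 4 conc (0.2–100 uM), 0.5% v/v DMSO, 90 min, 37C/5% CO2; Ca2+ flux fluorescence → peak.freq.avg; peak.freq.avg = 0 dropped; bidirectional fit vs DMSO; EC05 POD.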

[25] = read-out: Cyclin D1 (CCND1), CCND1 (gene 595); experiment: LTEA_HepaRG_CCND1: Life Technologies and Expression Analysis (LTEA) Assay for Cyclin D1 (CCND1) using HepaRG (AID 2283451); conditions: actives raise or lower the signal; mRNA level, 48 h
Method in brief: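 qRT-PCR (Fluidigm 96.96 array) read-out of transcript level, housekeeping-normalized (ACTB/GAPDH/POLR2A). HepaRG cells, 48 h chemical exposure, 8-point half-log series from 100 uM, 0.5% DMSO vehicle; gain or loss relative to DMSO baseline.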

CC(Cl)(Cl)C(=O)O
outcome [1]: inactive

CC(C)N(C(=O)SCC(Cl)=C(Cl)Cl)C(C)C
outcome [2]: inactive | outcome [3]: inactive | outcome [4]: inactive | AC50 [5]: active: 9.92 µM | outcome [6]: inactive

C1=Cc2cccc3cccc1c23
outcome [7]: inactive | outcome [3]: inactive

CC(C)Oc1cc(-n2nc(C(C)(C)C)oc2=O)c(Cl)cc1Cl
AC50 [8]: active: 11.8 µM | AC50 [9]: active: 67.6 µM

Nc1ccc(N=Nc2ccccc2)cc1
AC50 [10]: active: 11 µM

CC(C)N(C(=O)COc1nnc(C(F)(F)F)s1)c1ccc(F)cc1
AC50 [11]: active: 25.2 µM | outcome [12]: inactive | outcome [13]: inactive | outcome [14]: inactive

Cc1nn(-c2cc(NS(C)(=O)=O)c(Cl)cc2Cl)c(=O)n1C(F)F
AC50 [7]: active: 9.92 µM | outcome [15]: inactive

CCN(CC)N=O
outcome [1]: inactive | outcome [16]: inactive | outcome [17]: inactive | outcome [18]: inactive

c1ccc(N=Nc2ccccc2)cc1
outcome [19]: inactive | AC50 [20]: active: 50 µM | outcome [21]: inactive | outcome [15]: inactive | outcome [22]: inactive | outcome [23]: inactive | AC50 [24]: active: 34.7 µM

C1CC2OC2CC1C1CO1 (centres undefined)
outcome [25]: inactive
